From the supplement of paper PMC10849652
The other results are listed elsewhere or left out.

By UniProt entry, the sequences of proteins in these tests, tags left out. Where a name states a change or a piece, a line headed by the entry shows the natural chain unless it says otherwise.
UniProt P57060: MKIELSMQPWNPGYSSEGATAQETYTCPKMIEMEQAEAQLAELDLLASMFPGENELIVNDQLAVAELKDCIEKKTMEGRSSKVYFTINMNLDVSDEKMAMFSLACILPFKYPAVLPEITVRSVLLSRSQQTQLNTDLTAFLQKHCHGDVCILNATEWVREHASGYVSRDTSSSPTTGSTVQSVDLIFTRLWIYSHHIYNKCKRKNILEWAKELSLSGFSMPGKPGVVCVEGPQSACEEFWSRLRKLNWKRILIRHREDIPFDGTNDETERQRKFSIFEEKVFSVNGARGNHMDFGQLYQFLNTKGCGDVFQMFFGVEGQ
UniProt O75556: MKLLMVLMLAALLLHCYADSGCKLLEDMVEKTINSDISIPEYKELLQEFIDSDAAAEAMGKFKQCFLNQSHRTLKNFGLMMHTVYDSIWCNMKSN
UniProt O14828: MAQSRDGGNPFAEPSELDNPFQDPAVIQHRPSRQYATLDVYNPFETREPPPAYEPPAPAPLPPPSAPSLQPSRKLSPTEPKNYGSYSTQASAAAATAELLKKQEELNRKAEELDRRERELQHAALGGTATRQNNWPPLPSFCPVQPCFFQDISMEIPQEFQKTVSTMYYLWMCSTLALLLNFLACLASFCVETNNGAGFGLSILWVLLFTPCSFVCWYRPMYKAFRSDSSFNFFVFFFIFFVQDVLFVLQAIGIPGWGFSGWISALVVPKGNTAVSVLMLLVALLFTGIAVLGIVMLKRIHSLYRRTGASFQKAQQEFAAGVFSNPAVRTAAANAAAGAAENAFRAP
UniProt Q8N9R8: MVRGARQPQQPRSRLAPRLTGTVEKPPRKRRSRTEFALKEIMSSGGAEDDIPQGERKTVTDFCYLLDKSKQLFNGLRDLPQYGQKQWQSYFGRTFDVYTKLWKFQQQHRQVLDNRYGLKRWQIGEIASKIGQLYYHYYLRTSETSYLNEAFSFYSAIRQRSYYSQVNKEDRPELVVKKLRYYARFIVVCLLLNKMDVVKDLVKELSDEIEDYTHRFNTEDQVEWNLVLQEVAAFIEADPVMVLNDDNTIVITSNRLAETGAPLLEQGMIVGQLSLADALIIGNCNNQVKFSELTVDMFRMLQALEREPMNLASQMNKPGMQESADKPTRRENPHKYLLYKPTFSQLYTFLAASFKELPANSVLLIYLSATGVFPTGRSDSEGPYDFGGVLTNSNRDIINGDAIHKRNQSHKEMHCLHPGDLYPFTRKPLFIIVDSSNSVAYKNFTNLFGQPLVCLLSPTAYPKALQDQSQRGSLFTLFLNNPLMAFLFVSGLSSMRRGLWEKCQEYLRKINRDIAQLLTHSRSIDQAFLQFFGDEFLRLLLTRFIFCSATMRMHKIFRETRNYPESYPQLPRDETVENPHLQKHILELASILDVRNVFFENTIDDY
UniProt Q9UIL1: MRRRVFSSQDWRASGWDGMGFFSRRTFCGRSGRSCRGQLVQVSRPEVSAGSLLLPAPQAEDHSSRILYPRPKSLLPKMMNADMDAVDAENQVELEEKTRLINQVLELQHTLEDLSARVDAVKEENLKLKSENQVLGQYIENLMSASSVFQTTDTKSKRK
UniProt P29034: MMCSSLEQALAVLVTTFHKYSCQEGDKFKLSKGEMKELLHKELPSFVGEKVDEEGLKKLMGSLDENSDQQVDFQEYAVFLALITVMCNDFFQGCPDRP
UniProt Q8IZE3: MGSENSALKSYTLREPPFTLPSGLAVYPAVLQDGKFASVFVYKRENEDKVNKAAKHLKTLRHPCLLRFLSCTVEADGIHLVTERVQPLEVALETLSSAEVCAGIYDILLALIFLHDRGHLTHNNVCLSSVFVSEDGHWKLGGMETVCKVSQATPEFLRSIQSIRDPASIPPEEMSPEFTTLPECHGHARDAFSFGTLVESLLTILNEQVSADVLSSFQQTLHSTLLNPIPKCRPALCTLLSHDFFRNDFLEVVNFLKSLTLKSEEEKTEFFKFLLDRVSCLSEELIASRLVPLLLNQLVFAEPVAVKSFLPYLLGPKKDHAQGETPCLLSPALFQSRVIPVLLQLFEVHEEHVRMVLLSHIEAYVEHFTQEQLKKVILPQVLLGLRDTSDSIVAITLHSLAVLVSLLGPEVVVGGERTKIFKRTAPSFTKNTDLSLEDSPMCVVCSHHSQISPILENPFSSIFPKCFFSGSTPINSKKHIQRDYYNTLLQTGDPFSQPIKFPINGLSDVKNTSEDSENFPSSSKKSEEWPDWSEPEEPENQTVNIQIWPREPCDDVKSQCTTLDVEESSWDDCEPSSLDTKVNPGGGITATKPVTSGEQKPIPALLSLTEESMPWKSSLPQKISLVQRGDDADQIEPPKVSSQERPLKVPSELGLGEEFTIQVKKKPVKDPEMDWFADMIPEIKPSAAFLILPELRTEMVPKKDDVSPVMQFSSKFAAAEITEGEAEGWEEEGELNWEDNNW
UniProt Q96FQ6: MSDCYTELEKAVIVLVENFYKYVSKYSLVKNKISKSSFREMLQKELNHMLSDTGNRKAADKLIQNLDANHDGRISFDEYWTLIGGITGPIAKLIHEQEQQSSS
UniProt A6ZKI3: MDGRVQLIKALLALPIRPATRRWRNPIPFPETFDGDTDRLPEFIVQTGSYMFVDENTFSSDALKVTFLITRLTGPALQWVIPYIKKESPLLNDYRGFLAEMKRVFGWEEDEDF
UniProt Q9Y2B1: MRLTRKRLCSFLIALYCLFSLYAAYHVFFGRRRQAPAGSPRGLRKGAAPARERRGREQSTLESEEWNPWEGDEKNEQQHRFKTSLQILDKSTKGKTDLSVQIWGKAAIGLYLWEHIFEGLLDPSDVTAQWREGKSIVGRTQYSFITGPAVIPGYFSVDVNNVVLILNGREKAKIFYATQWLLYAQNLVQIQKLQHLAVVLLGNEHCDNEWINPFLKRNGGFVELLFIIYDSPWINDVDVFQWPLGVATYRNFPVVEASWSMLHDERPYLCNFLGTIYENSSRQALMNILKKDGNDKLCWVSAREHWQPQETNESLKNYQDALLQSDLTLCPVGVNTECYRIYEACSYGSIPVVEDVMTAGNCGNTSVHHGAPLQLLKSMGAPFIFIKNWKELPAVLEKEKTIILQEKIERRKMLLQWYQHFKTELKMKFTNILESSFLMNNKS
UniProt P28702: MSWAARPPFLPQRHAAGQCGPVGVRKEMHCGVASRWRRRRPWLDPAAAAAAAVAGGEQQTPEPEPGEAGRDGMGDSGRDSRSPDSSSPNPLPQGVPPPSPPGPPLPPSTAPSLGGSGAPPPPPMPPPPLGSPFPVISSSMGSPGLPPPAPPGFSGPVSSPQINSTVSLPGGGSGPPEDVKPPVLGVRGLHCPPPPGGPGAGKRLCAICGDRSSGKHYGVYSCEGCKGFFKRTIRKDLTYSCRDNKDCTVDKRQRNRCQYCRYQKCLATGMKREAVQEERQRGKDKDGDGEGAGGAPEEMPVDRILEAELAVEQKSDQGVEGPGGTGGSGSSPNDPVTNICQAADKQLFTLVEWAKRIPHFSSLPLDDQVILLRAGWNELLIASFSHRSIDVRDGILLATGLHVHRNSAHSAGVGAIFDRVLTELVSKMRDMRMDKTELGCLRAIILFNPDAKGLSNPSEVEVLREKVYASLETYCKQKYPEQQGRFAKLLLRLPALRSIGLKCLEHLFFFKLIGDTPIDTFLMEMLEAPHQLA
UniProt O75056, whole entry, looked up: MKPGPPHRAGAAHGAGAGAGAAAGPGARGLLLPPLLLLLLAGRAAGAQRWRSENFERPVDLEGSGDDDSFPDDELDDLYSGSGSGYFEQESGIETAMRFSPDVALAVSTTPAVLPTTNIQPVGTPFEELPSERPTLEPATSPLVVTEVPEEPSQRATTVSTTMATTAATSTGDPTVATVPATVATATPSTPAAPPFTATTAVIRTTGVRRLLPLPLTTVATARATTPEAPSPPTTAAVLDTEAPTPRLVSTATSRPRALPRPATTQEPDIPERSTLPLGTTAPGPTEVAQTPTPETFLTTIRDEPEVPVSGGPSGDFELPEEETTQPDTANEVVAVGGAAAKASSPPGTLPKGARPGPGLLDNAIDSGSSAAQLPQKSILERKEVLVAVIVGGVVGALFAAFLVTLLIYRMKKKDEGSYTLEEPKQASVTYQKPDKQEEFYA
UniProt Q86WG5: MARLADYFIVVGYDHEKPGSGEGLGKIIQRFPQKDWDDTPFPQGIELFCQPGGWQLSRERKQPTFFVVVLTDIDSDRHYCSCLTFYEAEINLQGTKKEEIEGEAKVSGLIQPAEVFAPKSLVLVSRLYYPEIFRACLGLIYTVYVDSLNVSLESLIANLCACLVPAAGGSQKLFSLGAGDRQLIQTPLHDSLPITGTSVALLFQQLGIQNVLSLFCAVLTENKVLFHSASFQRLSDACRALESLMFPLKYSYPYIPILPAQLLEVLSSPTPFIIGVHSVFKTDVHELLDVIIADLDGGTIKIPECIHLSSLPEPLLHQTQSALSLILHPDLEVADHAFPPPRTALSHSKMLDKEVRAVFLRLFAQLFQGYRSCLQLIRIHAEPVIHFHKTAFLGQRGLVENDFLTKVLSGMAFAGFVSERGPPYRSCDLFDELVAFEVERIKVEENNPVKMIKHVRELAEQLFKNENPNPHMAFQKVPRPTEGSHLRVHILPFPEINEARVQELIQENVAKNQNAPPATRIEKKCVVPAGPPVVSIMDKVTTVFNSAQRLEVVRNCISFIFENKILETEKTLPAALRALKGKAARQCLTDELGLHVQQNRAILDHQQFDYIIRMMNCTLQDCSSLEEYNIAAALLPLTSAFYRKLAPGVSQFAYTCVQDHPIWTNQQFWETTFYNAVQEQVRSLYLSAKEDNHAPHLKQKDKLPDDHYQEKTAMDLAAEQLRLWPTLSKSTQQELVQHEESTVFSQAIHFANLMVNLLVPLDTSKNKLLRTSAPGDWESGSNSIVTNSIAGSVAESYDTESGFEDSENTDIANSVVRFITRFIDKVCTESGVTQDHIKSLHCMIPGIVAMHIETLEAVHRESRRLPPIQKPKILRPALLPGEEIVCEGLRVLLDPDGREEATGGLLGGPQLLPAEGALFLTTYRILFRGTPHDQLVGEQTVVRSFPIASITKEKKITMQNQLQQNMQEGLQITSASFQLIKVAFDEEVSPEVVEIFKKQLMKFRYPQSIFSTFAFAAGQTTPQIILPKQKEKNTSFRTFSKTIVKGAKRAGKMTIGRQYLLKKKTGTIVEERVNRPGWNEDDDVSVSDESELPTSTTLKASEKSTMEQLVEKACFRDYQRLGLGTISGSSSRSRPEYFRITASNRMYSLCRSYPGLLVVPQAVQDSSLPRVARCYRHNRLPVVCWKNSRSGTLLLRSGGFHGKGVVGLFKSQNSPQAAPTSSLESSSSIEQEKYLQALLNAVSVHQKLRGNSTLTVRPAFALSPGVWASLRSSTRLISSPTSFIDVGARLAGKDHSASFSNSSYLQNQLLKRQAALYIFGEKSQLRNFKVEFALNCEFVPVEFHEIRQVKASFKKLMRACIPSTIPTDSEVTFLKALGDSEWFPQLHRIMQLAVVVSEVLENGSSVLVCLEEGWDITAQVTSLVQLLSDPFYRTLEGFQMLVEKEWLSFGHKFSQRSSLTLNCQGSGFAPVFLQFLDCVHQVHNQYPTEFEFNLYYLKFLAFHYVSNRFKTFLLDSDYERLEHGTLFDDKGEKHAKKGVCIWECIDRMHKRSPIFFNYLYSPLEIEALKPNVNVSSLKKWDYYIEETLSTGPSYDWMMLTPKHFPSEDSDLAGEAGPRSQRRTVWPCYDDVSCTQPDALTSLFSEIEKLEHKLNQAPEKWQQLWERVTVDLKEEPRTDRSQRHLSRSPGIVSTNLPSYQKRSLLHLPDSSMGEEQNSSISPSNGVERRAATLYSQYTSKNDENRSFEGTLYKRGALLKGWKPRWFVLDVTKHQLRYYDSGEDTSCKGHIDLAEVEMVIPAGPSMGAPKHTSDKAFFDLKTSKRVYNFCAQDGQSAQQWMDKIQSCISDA
UniProt P48443: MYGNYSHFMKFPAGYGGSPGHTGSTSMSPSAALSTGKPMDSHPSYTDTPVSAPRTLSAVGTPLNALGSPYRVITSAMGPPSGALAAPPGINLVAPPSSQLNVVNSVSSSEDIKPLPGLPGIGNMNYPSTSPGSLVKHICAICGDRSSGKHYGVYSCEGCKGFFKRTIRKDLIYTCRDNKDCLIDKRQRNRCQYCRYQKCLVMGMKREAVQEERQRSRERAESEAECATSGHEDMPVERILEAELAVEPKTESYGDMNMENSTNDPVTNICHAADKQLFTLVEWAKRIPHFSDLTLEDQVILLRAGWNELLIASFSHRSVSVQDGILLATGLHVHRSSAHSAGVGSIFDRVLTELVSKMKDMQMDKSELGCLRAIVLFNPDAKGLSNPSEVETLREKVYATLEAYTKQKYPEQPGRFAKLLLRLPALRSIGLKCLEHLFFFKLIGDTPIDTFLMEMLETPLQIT
UniProt Q9HCY8: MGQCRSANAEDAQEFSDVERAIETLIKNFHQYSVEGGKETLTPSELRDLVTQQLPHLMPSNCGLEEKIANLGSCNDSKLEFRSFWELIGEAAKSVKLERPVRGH
UniProt Q9NPB0: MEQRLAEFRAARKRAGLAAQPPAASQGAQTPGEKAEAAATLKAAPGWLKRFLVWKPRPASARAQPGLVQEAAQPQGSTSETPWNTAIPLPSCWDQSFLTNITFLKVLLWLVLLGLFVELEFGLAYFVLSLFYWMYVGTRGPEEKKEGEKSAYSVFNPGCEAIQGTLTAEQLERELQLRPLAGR

Key:
Test in all cases: log2 fold change, soluble protein after heating vs DMSO (PISA); higher = thermal stabilisation; K562 cells, 10 uM, 30 min; active = over 0.2 and 3.5 SD of the protein, either way, in both replicates (recomputed)
[1] = compound: CC1=C(C=C(C=C1)NC(=O)C2=CC(=CC=C2)C(C)(C)C#N)NC3=CC4=C(C=C3)N=CN(C4=O)C
In short: (§1)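 For each measurement, 10 μM compound was applied for 30 min to K562 cells at 2×10^6 cells/mL. Aliquots were heated for 3 min across 48°C-58°C, pooled, and extracted in PBS with 0.5% NP-40 at 4°C; the supernatant after 21,000xg for 90 min was soluble protein. This was quantified by TMTpro 16plex LC-MS/MS with channel sums equalised, and thermal stability was reported relative to control samples from duplicates, on a log2 fold-change scale.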

[2] = compound: CC1=CC=C(C=C1)SC2=C3C=C(SC3=CN=C2)C(=O)N
In short: as §1

[3] = compound: CC1=NC(=CC=C1)C2=C(N=C(N2)C(C)(C)C)C3=CC4=NC=CN=C4C=C3
In short: as §1

vemurafenib = compound: CCCS(=O)(=O)Nc1ccc(F)c(C(=O)c2c[nH]c3ncc(-c4ccc(Cl)cc4)cc23)c1F [vemurafenib]
In short: as §1

[4] = compound: CCCS(=O)(=O)Nc1ccc(F)c(C(=O)c2c[nH]c3ncc(Cl)cc23)c1F
In short: as §1

givinostat = compound: CCN(CC)Cc1ccc2cc(COC(=O)Nc3ccc(C(=O)NO)cc3)ccc2c1 [givinostat]
In short: as §1

[5] = compound: CC1=C(C=C(C=C1)NC(=O)C2=CC(=CC=C2)N(C)C)NC(=O)C3=CC=C(C=C3)O
In short: as §1

Nexturastat A = compound: CCCCN(Cc1ccc(C(=O)NO)cc1)C(=O)Nc1ccccc1 [Nexturastat A]
In short: as §1

[6] = compound: CCCc1cc(C)[nH]c(=O)c1CNC(=O)c1cc(-c2ccnc(N3CCN(C)CC3)c2)cc2c1cnn2C(C)C
In short: as §1

barasertib = compound: CCN(CCCOc1ccc2c(Nc3cc(CC(=O)Nc4cccc(F)c4)[nH]n3)ncnc2c1)CCOP(=O)(O)O [barasertib]
In short: as §1

Measured: log2 fold change

SDCCAG8 (UniProt Q86SQ7)
inactive: [1] 0.189 | [2] -0.039 | [3] -0.052 | vemurafenib 0.243 | [4] -0.02 | givinostat 0.099

SC5D (UniProt O75845)
inactive: [1] -0.04 | [5] -0.014 | [2] 0.036 | Nexturastat A 0.043 | vemurafenib 0.007 | [4] -0.053 | [6] 0 | givinostat -0.04 | barasertib -0.003

RUFY3 isoform 3 (UniProt Q7L099)
inactive: [1] -0.085 | [5] -0.068 | [2] 0.016 | [3] 0.038 | vemurafenib -0.032 | [4] -0.011 | [6] -0.093 | givinostat 0.021

RUVBL1 (UniProt Q9Y265)
inactive: [1] 0.035 | [5] -0.007 | [2] -0.047 | [3] -0.027 | Nexturastat A -0.01 | vemurafenib -0.008 | [4] -0.081 | [6] -0.018 | givinostat -0.006 | barasertib -0.034

SCRN2 (UniProt Q96FV2)
inactive: [1] -0.065 | [5] -0.111 | [2] 0.1 | [3] -0.105 | Nexturastat A 0.067 | vemurafenib 0.006 | [4] -0.089 | [6] -0.098 | givinostat 0.044 | barasertib 0.032

RSL24D1 (UniProt Q9UHA3)
inactive: [1] -0.068 | [5] 0.019 | Nexturastat A 0.32 | vemurafenib -0.247 | [6] 0.193 | givinostat 0.14 | barasertib -0.097

SDSL (UniProt Q96GA7)
inactive: [1] 0.014 | [5] -0.049 | [2] -0.035 | [3] -0.045 | Nexturastat A -0.06 | vemurafenib 0.034 | [4] -0.079 | [6] -0.018 | givinostat -0.007 | barasertib -0.004

RWDD2B (UniProt P57060)
inactive: [1] -0.014 | [5] -0.135 | [2] 0.003 | [3] -0.045 | vemurafenib 0.167 | [4] 0.121 | givinostat -0.145

S100A1 (UniProt P23297)
inactive: [1] 0.103 | [5] -0.064 | [3] 0.187 | Nexturastat A -0.066 | givinostat -0.204 | barasertib 0.077

SCGB2A1 (UniProt O75556)
inactive: [6] -0.095 | barasertib 0.408

SCAMP3 isoform 2 (UniProt O14828)
inactive: [5] -0.043 | [2] -0.081 | [3] 0.109 | Nexturastat A 0.058 | vemurafenib -0.183 | [4] 0.027 | [6] 0.119 | barasertib 0.136

SAFB2 (UniProt K7EQU4)
inactive: [3] 0.057 | Nexturastat A 0.111 | barasertib 0.295

SEC22A (UniProt Q96IW7)
inactive: [5] 0.007 | [2] -0.02 | [3] 0.047 | [4] 0.001 | givinostat -0.026 | barasertib -0.075

SCAI isoform 2 (UniProt Q8N9R8)
inactive: [5] 0.031 | [3] 0.064 | Nexturastat A 0.129 | vemurafenib -0.171 | givinostat 0.006

SAP130 isoform 3 (UniProt Q9H0E3)
inactive: [5] 0.151 | [3] -0.12 | vemurafenib 0.016

SBSN (UniProt Q6UWP8)
inactive: [6] 0.367

RUBCN (UniProt Q92622)
inactive: [5] -0.013 | vemurafenib -0.32

SCOC (UniProt Q9UIL1)
inactive: [5] -0.116

RRP1B (UniProt Q14684)
inactive: [1] -0.016 | [3] -0.022 | Nexturastat A 0.102 | vemurafenib -0.054 | [6] 0.068 | givinostat -0.07

SDF2 (UniProt Q99470)
inactive: [2] -0.067 | [3] 0.149 | Nexturastat A 0.013 | [4] 0.158 | givinostat 0.104 | barasertib -0.105

SCN4A (UniProt P35499)
inactive: [6] -0.1

S100A2 (UniProt P29034)
inactive: [2] 0.096 | vemurafenib 0.059 | [4] 0 | [6] 0.081 | givinostat 0.655 | barasertib 0.388

SCYL3 isoform 2 (UniProt Q8IZE3)
inactive: [5] -0.061 | [2] -0.002 | [3] 0.005 | Nexturastat A 0.004 | vemurafenib 0.008 | [4] 0.022 | [6] -0.01 | givinostat 0.012 | barasertib -0.012

S100A16 (UniProt Q96FQ6)
inactive: [3] -0.218 | Nexturastat A -0.278 | vemurafenib 0.146 | [6] 0.048 | givinostat 0.009 | barasertib 0.505

RTL8C (UniProt A6ZKI3)
inactive: [5] -0.221 | [2] 0.021 | [3] -0.131 | Nexturastat A 0.281 | vemurafenib 0.084 | [4] -0.13

SEC14L1 isoform 2 (UniProt Q92503)
inactive: [1] 0.034 | Nexturastat A 0.007 | vemurafenib 0.003 | givinostat 0.02

RTN4 isoform 5 (UniProt Q9NQC3)
inactive: [5] 0.047 | [2] -0.005 | [3] 0.033 | Nexturastat A -0.021 | vemurafenib -0.015 | [4] 0.176 | givinostat 0.09

RTN4, A0A0U1RQR6
inactive: Nexturastat A 0.271

SCLT1 (UniProt Q96NL6)
inactive: [1] -0.057 | [3] -0.161 | vemurafenib 0.045 | [6] 0.01 | barasertib 0.049

RXYLT1 (UniProt Q9Y2B1)
inactive: [2] 0.012 | [4] -0.19 | givinostat -0.173

SCRIB isoform 3 (UniProt Q14160)
inactive: [5] -0.082 | [3] -0.19 | [6] 0.375 | givinostat 0.076

RXRB isoform 3 (UniProt P28702)
inactive: [1] 0.067 | Nexturastat A 0.58 | barasertib 0.195

S100A10 (UniProt P60903)
inactive: [1] 0.128 | [2] 0.181 | [4] -0.086 | barasertib 0.113

SDC3 (UniProt O75056)
inactive: [1] 0.091 | Nexturastat A 0.016 | vemurafenib 0.073

S100A4 (UniProt P26447)
inactive: [5] 0.103 | [2] 0.045 | [3] -0.085 | [4] -0.054 | givinostat -0.026

SBF2 (UniProt Q86WG5)
inactive: [5] 0.02 | Nexturastat A -0.051

RXRG (UniProt P48443)
inactive: [5] -0.05

SDHB, A0A087WXX8
inactive: [5] 0.01 | [2] -0.097 | vemurafenib -0.017 | [4] -0.176 | [6] 0.045 | givinostat 0.059 | barasertib 0.028

3 entries picked at random from those above:
S100A1 (UniProt P23297)
inactive: [1] 0.103 | [5] -0.064 | [3] 0.187 | Nexturastat A -0.066 | givinostat -0.204 | barasertib 0.077

RXRB isoform 3 (UniProt P28702)
inactive: [1] 0.067 | Nexturastat A 0.58 | barasertib 0.195

RUFY3 isoform 3 (UniProt Q7L099)
inactive: [1] -0.085 | [5] -0.068 | [2] 0.016 | [3] 0.038 | vemurafenib -0.032 | [4] -0.011 | [6] -0.093 | givinostat 0.021

Following part

SAMD4A (UniProt Q9UPU9)
inactive: [3] -0.046 | Nexturastat A 0.282 | givinostat -0.01

S100A14 (UniProt Q9HCY8)
inactive: [5] 0.208 | vemurafenib 0.26 | [6] 0.337 | givinostat 0.27 | barasertib 0.337

SAYSD1 (UniProt Q9NPB0)
inactive: [1] 0.154 | [2] 0.052 | Nexturastat A 0.127 | [4] -0.099 | [6] -0.199 | givinostat -0.009 | barasertib 0.048

RTL10 (UniProt Q7L3V2)
inactive: [5] 0.266 | [2] 0.06 | Nexturastat A 0.083 | vemurafenib 0.037 | [4] -0.056 | [6] -0.358
